From the supplement of paper PMC12889115
Some of the results follow. Values are raw readings; no control value is given beside them.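 In the initial screen, polymyxin B was used at a concentration that permeabilizes Salmonella's outer membrane but not its inner membrane. Maximum growth was set by DMSO wells with or without polymyxin B. Since plates varied, data were ranked per plate, and compounds giving the lowest OD600 advanced as hits.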

System: Salmonella enterica serovar Typhimurium SL1344
Test: bacterial growth OD600 after 18 h with compound and polymyxin B; higher = more bacterial growth (less inhibition)
Conditions: 50 µM, Mueller-Hinton broth

Row | SMILES | bacterial growth OD600 (polymyxin B 0.75 µg/mL) | bacterial growth OD600 (polymyxin B 1 µg/mL)
1 | CN(C)c1nc2nonc2nc1N1CCc2ccccc2C1 | 0.717 | 
2 | CC1(CCC(=O)NCCc2nc(-c3ccccc3)cs2)CCC(=O)N1 (centres undefined) | 0.89 | 
3 | O=C(Cc1cscn1)NCc1nc(NCCCc2ccccc2)c2ccccc2n1 | 0.015 | 
4 | Cc1ccccc1-c1nn(-c2ccc(F)cc2F)cc1CN1CCC(C(N)=O)CC1 |  | 0.933
5 | CCc1ccc(CN2CCN(Cc3ccccc3F)C(CCO)C2)cc1 (centres undefined) |  | 0.962
6 | CC(C)(C)CN1CCCC(O)(CN2CCSCC2)C1=O (centres undefined) | 0.77 | 
7 | O=C(NCCc1cnn(-c2ccccc2)c1)C1CCC(=O)N(C2CC2)C1 (centres undefined) |  | 0.836
8 | COCC1CCCN(Cc2ccc3c(c2)CN(C(=O)Cc2nnc(-c4ccccc4)[nH]2)CCO3)C1 (centres undefined) | 0.793 | 
9 | COc1cccc(C(=O)N2CCN(C(=O)CSc3ccc4nnc(-c5cccnc5)n4n3)CC2)c1 | 0.806 | 
